Values from PubChem BioAssay AID504791 (Drosophila RNAi Screening Center, 2011).
In all, the deposit lists about 23,000 reagents; this is an unselected part of those with a known target gene and a result. Over the whole deposit, 199 (0.86%) got an active call. 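Plate-scaled ratios behind the calls are not deposited; printed light signals are raw; many rows marked increased or decreased are still called inactive.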 Reagent sequences are not shown. The record does not give: the direction of the score.

Test: 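Genes of the fly required for silencing by miRNA, siRNA or endo-siRNA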 (primary screen)
System: Drosophila S2-derived reporter cells
Reagent: long dsRNA against Drosophila genes, about 150-250 ng dsRNA per well (siRNA assay); about 80-120 ng (miRNA assay)
Duration: about 5 days (siRNA assay); about 4 days (miRNA assay)
Conditions: copper sulfate induction of reporters: 25 µM (siRNA assay); 200 mM stated (miRNA assay), 1-2 days before reading
Read-out: 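Per-well ratio of Renilla over firefly light, expressed relative to that plate's average ratio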
Units: stable assay Renilla, run 1 in luminescence; stable assay firefly, run 1 in luminescence
Hit rule: 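a well was a first-pass pick when its plate-scaled ratio rose above 1.5 (siRNA assay) or 1.6 (miRNA assay), or dropped below 0.6; a gene counted only if two separate dsRNAs agreed on retest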

Depletion of CG30334 [DRSC05345] came out at: stable assay Renilla, run 1 = 5410; stable assay firefly, run 1 = 3.81e5; inactive. Alg13 [DRSC14864] gave stable assay Renilla, run 1 = 4335; stable assay firefly, run 1 = 5.00e5; inactive. For Ibf1 [DRSC16419], the entry reads stable assay Renilla, run 1 = 5950; stable assay firefly, run 1 = 4.39e5; inactive. Odc1 [DRSC07482] showed stable assay Renilla, run 1 = 7959; stable assay firefly, run 1 = 3.54e5; inactive. Mob4 [DRSC04993] showed stable assay Renilla, run 1 = 16051; stable assay firefly, run 1 = 9.73e5; inactive. For ND-ASHI [DRSC18291], the entry reads stable assay Renilla, run 1 = 4504; stable assay firefly, run 1 = 3.32e5; inactive.

With knock-down of ihog [DRSC03157], the screen gave stable assay Renilla, run 1 = 54465; stable assay firefly, run 1 = 2.07e5; inactive. For Ir60e [DRSC04227] the deposit lists stable assay Renilla, run 1 = 5879; stable assay firefly, run 1 = 3.69e5; inactive. Knock-down of CG14984 [DRSC08442] came out at: stable assay Renilla, run 1 = 6320; stable assay firefly, run 1 = 3.53e5; inactive. Against Muc96D [DRSC13709], the values are stable assay Renilla, run 1 = 5938; stable assay firefly, run 1 = 4.64e5; inactive. With knock-down of Muc96D [DRSC21609] the results were stable assay Renilla, run 1 = 7756; stable assay firefly, run 1 = 4.02e5; inactive. Muc96D [DRSC23213] scored stable assay Renilla, run 1 = 4271; stable assay firefly, run 1 = 2.90e5; inactive.

Against CG15256 [DRSC01940], the entry reads stable assay Renilla, run 1 = 8566; stable assay firefly, run 1 = 5.05e5; inactive.

Limited to “stable assay Renilla, run 1” (2 entries from above):
Ir60e [DRSC04227]	5879
CG14984 [DRSC08442]	6320

More reagents follow:
For Pink1 [DRSC18361], the entry reads stable assay Renilla, run 1 = 7303; stable assay firefly, run 1 = 4.79e5; inactive. For Rbp9 [DRSC00416], the entry reads stable assay Renilla, run 1 = 7007; stable assay firefly, run 1 = 5.75e5; inactive. For Rbp9 [DRSC00779], the values are stable assay Renilla, run 1 = 15724; stable assay firefly, run 1 = 2.63e5; inactive. Depletion of CG13323 [DRSC06360] came out at: stable assay Renilla, run 1 = 5806; stable assay firefly, run 1 = 3.93e5; inactive. Against CG18011 [DRSC06697], the values are stable assay Renilla, run 1 = 7890; stable assay firefly, run 1 = 4.36e5; inactive. For CG18011 [DRSC06706], the entry reads stable assay Renilla, run 1 = 7602; stable assay firefly, run 1 = 6.07e5; inactive.

After knock-down of Csas [DRSC22390], the screen gave stable assay Renilla, run 1 = 4259; stable assay firefly, run 1 = 4.77e5; inactive. For CG17364 [DRSC10269], the values are stable assay Renilla, run 1 = 8097; stable assay firefly, run 1 = 5.58e5; inactive. CG17364 [DRSC10270] scored stable assay Renilla, run 1 = 3564; stable assay firefly, run 1 = 3.06e5; inactive. After knock-down of CG17364 [DRSC22689], the screen gave stable assay Renilla, run 1 = 4683; stable assay firefly, run 1 = 3.66e5; inactive. Depletion of CG6865 [DRSC10732] gave: stable assay Renilla, run 1 = 8746; stable assay firefly, run 1 = 4.61e5; inactive. Silencing of CG5079 [DRSC15713] gave: stable assay Renilla, run 1 = 4811; stable assay firefly, run 1 = 1.60e5; inactive.

Against CG5079 [DRSC23061], the values are stable assay Renilla, run 1 = 4240; stable assay firefly, run 1 = 2.57e5; inactive. Against CG4554 [DRSC04473], the values are stable assay Renilla, run 1 = 89502; stable assay firefly, run 1 = 5.65e5; inactive. Depletion of Miro [DRSC15795] gave: stable assay Renilla, run 1 = 10545; stable assay firefly, run 1 = 5.50e5; inactive.
